Measured values reported in patent US12643893B2, “Heteroaryl-pyridinium compound and redox flow battery comprising the same” (Korea Advanced Institute of Science and Technology, priority 2021, dated 2026).

Assay: Full RFB with BTMAP-Fc posolyte, galvanostatic cycling, polarization, post-mortem CV
Conditions: for capacity maintained (of first/initial capacity): after 100 cycles

C[N+](C)(C)CCC[n+]1ccc(-c2nc3ccccc3s2)cc1 [TMAP-BTP^2+]
CE (4.5 mA/cm^2): > 98.96% | energy efficiency (EE) (4.5 mA/cm^2): ~86% | capacity decrease (27 mA cm^−2 compared to 4.5 mA cm^−2): 14% | maximum power density (MPD) (90% SOC): 17.8 mW/cm^2 | average CE (500 cycles): exceeding 99.80% | capacity-fading rate per cycle (500 cycles, full cell): 0.08% | capacity maintained (of first/initial capacity) (18 mA cm^−2): 89.8% | loss of the negolyte molecule by crossover (after 500 cycles): about 26.7% | loss of total capacity (after 500 cycles): ~34.3% | capacity maintained (of first charging capacity) (after 500 cycles, 18 mA cm^−2): 65.7% | first charging capacity (full RFB 0.1 M negolyte, 4.5 mA/cm^2): 2.50 Ah/L | first charging capacity (full RFB, 18 mA cm^−2): 2.57 Ah L^−1 | c1 current density on the negolyte side relative to the posolyte side (post-mortem CV after 500 cycles): ~2.75 times

C[n+]1ccc(-c2nc3ccccc3s2)cc1 [BTP^+]
capacity maintained (of first/initial capacity) (18 mA cm^−2): ~60% | capacity maintained (after 220 cycles): ~50% | capacity maintained (after 335 cycles): ~50%

C[N+](C)(C)CCC[c-]1cccc1.C[N+](C)(C)CCC[c-]1cccc1.O=S(=O)([N-]S(=O)(=O)C(F)(F)F)C(F)(F)F.O=S(=O)([N-]S(=O)(=O)C(F)(F)F)C(F)(F)F.[Fe+2] [BTMAP-Fc·2TFSI^−, 1,1′-bis[3-(trimethylammonio)propyl]ferrocene dibis-trifluoromethanesulfonimidate, reference compound]
anodic CV wave intensity in the posolyte solution relative to the negolyte solution (BTP^+ full RFB, post-mortem CV after 335 cycles): 2.3 times
